Results deposited as PubChem BioAssay AID504793 (Drosophila RNAi Screening Center, 2011)

Screen: 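Genes required for cells to halt at G2/M after double-strand DNA breaks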 (primary screen)
Cell system: Drosophila S2R+ cells
Knock-down reagent: long dsRNA against Drosophila genes, about 0.25 µg dsRNA per well
Duration: 4 days of dsRNA, then 4 hours of drug before read-out
Challenge: doxorubicin 0.5 µM for 4 hours to cause double-strand breaks, in cells also given a low, harmless dose of dsRNA against nbs to sensitise the assay
Read-out: 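Per-well count of mitotic cells stained for phospho-histone H3 after doxorubicin exposure, used as mitotic index; counts are raw and not normalised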
Direction: mitotic cells: higher = more cells in mitosis, weaker G2 arrest
Call rule: 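a call needs confirmation in secondary tests, with other dsRNAs and a check of mitotic timing without damage, not just a high primary count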
Calls: active = confirmed in follow-up tests; inactive = not confirmed
In all, the deposit lists about 23,000 reagents; below is a random part of those that have a named target and a result. In the full data, 62 (0.27%) were called active. 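Calls come from follow-up tests whose scores are not deposited, so confirmed genes may have low counts here; counts are not normalised per plate.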 The raw values are shown without normalisation. Names joined by + are all predicted targets of the reagent.

no.	target gene	dsRNA	mitotic cells, replicate 1	call
1	CG14963	DRSC08422	2	inactive
2	MICU1	DRSC02752	2	inactive
3	HisCl1	DRSC14945	5	inactive
4	CG14626	DRSC18631	13	inactive
5	CG14626	DRSC27786	5	inactive
6	Adk2	DRSC09827	6	inactive
7	Ars2	DRSC04893	6	inactive
8	CG1927	DRSC08146	9	inactive
9	CG15136	DRSC02436	4	inactive
10	Gprk1	DRSC20732	13	inactive
11	Gprk1	DRSC20916	9	inactive
12	CG15435	DRSC00450	2	inactive
13	CG15435	DRSC27701	6	inactive
14	CG14070	DRSC02373	6	inactive
15	RpL13	DRSC03416	22	inactive
16	CG10376	DRSC02049	3	inactive
17	CG10376	DRSC26744	6	inactive
18	Pi3K92E	DRSC16788	7	inactive
19	PH4alphaNE3	DRSC16541	3	inactive
20	PH4alphaNE3	DRSC24337	9	inactive
21	Mat1	DRSC07465	3	inactive
22	Mat1	DRSC25955	4	inactive
23	CG33770	DRSC11717	10	inactive
24	CG5937	DRSC18392	11	inactive
25	CG5937	DRSC26696	6	inactive
26	Smyd4-3	DRSC07041	5	inactive
27	Smyd4-3	DRSC28851	9	inactive
28	Tbca	DRSC15395	9	inactive
29	Tbca	DRSC29064	3	inactive
30	Cyp4aa1	DRSC07368	6	inactive
31	Cyp4aa1	DRSC27648	8	inactive
32	CG9062	DRSC07327	8	inactive
33	CG9062	DRSC27558	10	inactive
34	tkv	DRSC03623	8	inactive
35	tkv	DRSC22606	8	inactive
36	tkv	DRSC25957	5	inactive
37	fwe	DRSC10594	4	inactive
38	fwe	DRSC21400	5	inactive
39	CG14212	DRSC19568		inactive
40	CG14212	DRSC27314	7	inactive
41	Pig1	DRSC24991	7	inactive
42	CG6972 + CCAP	DRSC28448	13	inactive
43	Mob3	DRSC02791	3	inactive
44	lncRNA:CR33942	DRSC37857	8	inactive
45	lncRNA:CR33942	DRSC39119	9	inactive
46	His4:CG33883 + His4:CG33889 + His4:CG33899 + 20 more	DRSC21268	5	inactive
47	His4:CG33883 + His4:CG33889 + His4:CG33899 + 20 more	DRSC30020	11	inactive
48	Mys45A	DRSC07067	5	inactive
49	Mys45A	DRSC25852	4	inactive
50	CG31068	DRSC13820	11	inactive
51	CG8509	DRSC20109	5	inactive
52	CG42527 (retired record) + Hr4	DRSC23080	10	inactive
53	CG42527 (retired record) + Hr4	DRSC23251	17	inactive
54	CG42527 (retired record) + Hr4	DRSC27857	4	inactive
55	CG42527 (retired record) + Hr4	DRSC28298	3	inactive
56	CG31687 + Cdc23	DRSC23052	16	inactive
57	CG42816 + CG42815	DRSC11230	2	inactive
58	CG30026	DRSC05276	11	inactive
59	CG30026	DRSC29320	4	inactive
60	mr	DRSC04332	13	inactive
61	mr	DRSC22856	20	inactive
62	mr	DRSC29384	56	inactive
63	CG12177	DRSC19437	9	inactive
64	CG12177	DRSC21524	5	inactive
65	CG12177	DRSC29474	7	inactive
66	CG15468	DRSC18051	17	inactive
67	ssp3	DRSC02669	11	inactive
68	ssp3	DRSC02670	1	inactive
69	ssp3	DRSC27298	7	inactive
70	CG10445	DRSC14247	6	inactive
71	Got1	DRSC07177	2	inactive
72	Got1	DRSC26159	4	inactive
73	prom	DRSC04684	4	inactive
74	prom	DRSC21463	9	inactive
75	prom	DRSC22088	15	inactive
76	prom	DRSC24876	4	inactive
77	prom	DRSC26828	6	inactive
78	prom	DRSC27557	8	inactive

No new results follow: entries from further up.
no.	target gene	dsRNA	mitotic cells, replicate 1	call
71	Got1	DRSC07177	2	inactive
72	Got1	DRSC26159	4	inactive
73	prom	DRSC04684	4	inactive
74	prom	DRSC21463	9	inactive
75	prom	DRSC22088	15	inactive
76	prom	DRSC24876	4	inactive
